Data from the supplement of paper PMC10735217.
Counter-ions that a name gives are not always drawn. Some of the results follow. Single values are uncertain here, since repeats match poorly.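 The human kidney-derived cells carry a stably integrated construct of eight TEAD-binding elements driving luciferase, read by luminescence in a drug-repurposing library screen. A compound counts as a hit when its signal is more than five robust Z scores above the plate mean.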

System: HEK293A TEAD-LUC reporter
Assay: TEAD-luciferase reporter activity (YAP activation), robust Z score vs plate; higher = stronger YAP/TEAD activation
Details: 24 h

| SMILES | TEAD-luciferase reporter activity (compound concentration: 200 nM) | TEAD-luciferase reporter activity (compound concentration: 2 uM) | TEAD-luciferase reporter activity (compound concentration: 10 uM) |
| --- | --- | --- | --- |
| C[C@@H]1COCCN1c1cc(C2(S(C)(=O)=O)CC2)nc(-c2cccc3[nH]ccc23)n1 | inactive: -0.675 | inactive: -1.12 | inactive: -0.932 |
| N=C(N)NCCCCCCNC(=O)COC(=O)NCCCCNCCCN [Tresperimus triflutate] | inactive: -2.5 | inactive: 1.46 | inactive: -1.87 |
| O=C1NC(=O)C(Cc2cnc3cc(OCc4ccccc4)ccc3c2)S1 (centres undefined) | inactive: -0.499 | inactive: -0.736 | inactive: 0.0316 |
| C#CC[C@@H](C(=O)N[C@H](/C=C/C(=O)OCC)C[C@@H]1CCNC1=O)n1cccc(NC(=O)c2cc(C)on2)c1=O | inactive: -0.0893 | inactive: -0.877 | inactive: -0.665 |
| Cc1nccnc1-c1ccc(CC(=O)N[C@H](C)c2ccc(OCC(F)(F)F)cn2)cc1 | inactive: -0.961 | inactive: -2.34 | inactive: 3.98 |
| CS(=O)(=O)OCOS(C)(=O)=O | inactive: -0.697 | inactive: -1.27 | inactive: -0.936 |
| CC(C)c1nc(CN(C)C(=O)N[C@H](C(=O)N[C@H](Cc2ccccc2)C[C@H](O)[C@H](Cc2ccccc2)NC(=O)OCc2cncs2)C(C)C)cs1 [ritonavir] | inactive: 1.83 | inactive: -0.201 | inactive: -1.43 |
| Nc1nc2cc(C(F)(F)F)ccc2n1Cc1ccc(Cl)cc1 | inactive: -1.09 | inactive: -1.65 | inactive: -0.202 |
| NS(=O)(=O)c1cc2c(cc1Cl)N=C(CSCc1ccccc1)NS2(=O)=O | inactive: -0.418 | inactive: 1.17 | inactive: -1.07 |
| CC(=O)NC(CO)C(O)c1ccc([N+](=O)[O-])cc1 (centres undefined) | inactive: -0.7 | inactive: 1.69 | inactive: 0.0536 |
| CO[C@@]1(NC(=O)C(C(=O)[O-])c2ccc(O)cc2)C(=O)N2C(C(=O)[O-])=C(CSc3nnnn3C)CO[C@@H]21 (some centres undefined) [Latamoxef sodium] | – | inactive: -0.924 | – |
| CO[C@@]1(NC(=O)C(C(=O)[O-])c2ccc(O)cc2)C(=O)N2C(C(=O)[O-])=C(CSc3nnnn3C)CO[C@@H]21 (some centres undefined) | inactive: -1.92 | – | inactive: 0.704 |
| CCN(CC)CCOC(=O)c1ccc(N)cc1Cl [Chloroprocaine hydrochloride] | inactive: -1.21 | inactive: 0.677 | inactive: 3.55 |
| CO/N=C(\C(=O)N[C@@H]1C(=O)N2C(C(=O)O)=C(COC(C)=O)CS(=O)[C@H]12)c1csc(N)n1 (some centres undefined) | inactive: -2.31 | inactive: 1.82 | active: 5.84 |
| C=C(C)[C@@H]1CC[C@]2(C(=O)O)CC[C@]3(C)[C@H](CC[C@@H]4[C@@]5(C)CC[C@H](OC(=O)CC(C)(C)C(=O)O)C(C)(C)[C@@H]5CC[C@]43C)[C@@H]12 [Bevirimat dimeglumine] | inactive: -2.02 | inactive: -0.901 | inactive: 0.216 |
| C[n+]1cc2c3c(ccc2c2ccc4cc5c(cc4c21)OCO5)OCO3 [Sanguinarium chloride] | – | active: 10.4 | – |
| C[n+]1cc2c3c(ccc2c2ccc4cc5c(cc4c21)OCO5)OCO3 | inactive: 0.617 | – | active: 11.2 |
| CCc1c(O)c(=O)ccn1CC | inactive: -0.604 | inactive: 0.0411 | inactive: -1.58 |
| CC(NC(=O)Nc1ccccn1)c1ccc(S(N)(=O)=O)cc1 (centres undefined) | inactive: -1.21 | inactive: 0.527 | inactive: 1.73 |
| Cc1cccc(C)c1Nc1ncccc1C(=O)O | inactive: 0.752 | inactive: -0.388 | inactive: -0.322 |
| CCc1nc(-c2cccc(C)c2)c(-c2ccnc(NC(=O)c3ccccc3)c2)s1 | inactive: -1.85 | inactive: -1.48 | inactive: 0.0625 |
| CCN(CC)CCCOc1ccc(Cl)cc1Cl | inactive: -0.967 | inactive: -2.75 | inactive: 0.867 |
| Nc1nc(=O)c2c([nH]1)NC[C@H](CCc1ccc(C(=O)N[C@@H](CCC(=O)O)C(=O)O)cc1)C2 [Lometrexol hydrate] | inactive: -1.18 | inactive: -1.2 | inactive: 0.939 |
| CN1C(=O)/C(=N\NC(N)=S)c2ccccc21 | inactive: 3.2 | inactive: 2.73 | inactive: -0.153 |
| CN1CCN(C2=Nc3ccc(F)cc3Nc3sc4ccccc4c32)CC1 | inactive: -0.345 | inactive: -2.79 | inactive: -1.41 |
| Nc1nc2c(ncn2[C@@H]2C[C@H](CO)[C@H]2CO)c(=O)[nH]1 [Lobucavir] | inactive: -0.961 | inactive: -0.702 | inactive: -0.598 |
| NC(=O)c1ncn([C@@H]2O[C@H](CO)[C@@H](O)[C@H]2O)c1O [Mizoribine] | inactive: 0.0634 | inactive: -0.553 | inactive: -0.325 |

| SMILES | TEAD-luciferase reporter activity (compound concentration: 200 nM) | TEAD-luciferase reporter activity (compound concentration: 2 uM) | TEAD-luciferase reporter activity (compound concentration: 10 uM) |
| --- | --- | --- | --- |
| Cc1cccc(CN2CCN(C(c3ccccc3)c3ccc(Cl)cc3)CC2)c1 (centres undefined) [Meclozine hydrochloride] | – | inactive: 0.569 | – |
| Cc1cccc(CN2CCN(C(c3ccccc3)c3ccc(Cl)cc3)CC2)c1 (centres undefined) [Meclizine hydrochloride] | inactive: -0.951 | – | inactive: -0.829 |
| C/C(=N/NC(=S)NN)c1ccccn1 | inactive: -0.666 | inactive: -2.09 | inactive: -1.43 |
| CC1=C(C(=O)O)N2C(=O)[C@@H](NC(=O)[C@H](N)c3cccc(NS(C)(=O)=O)c3)[C@H]2SC1 | inactive: 1.96 | inactive: -1.66 | inactive: -0.114 |
| COCCN1CCN(Cc2ccc(-c3n[nH]c4c3C(=O)c3c(NC(=O)NN5CCOCC5)cccc3-4)cc2)CC1 | inactive: -1.24 | inactive: -3.57 | inactive: -1.5 |
| NC(=S)N/N=C/c1ncccc1N | inactive: -1.19 | inactive: 0.923 | inactive: -0.978 |
| CC[C@@H](C)Nc1nc(C)nc2c(-c3ccc(OC)nc3C)c(C)nn12 | inactive: -1.05 | inactive: -1.58 | inactive: -0.583 |
| CCCCCCCCCCCCCCCCCCCCCCCCC(=O)O | inactive: -0.332 | inactive: 0.985 | inactive: -0.374 |
| CNC(=O)COc1ccccc1OCC(O)CNC(C)(C)C (centres undefined) [Cetamolol hydrochloride] | inactive: -0.145 | inactive: -0.636 | inactive: 0.378 |
| COc1ccc(Cl)c2c1CCCC2N(C)C (centres undefined) | inactive: 2.46 | inactive: -0.558 | inactive: 0.544 |
| Cc1ccc(-n2ccnc2)cc1C(=O)c1c(C)cc(C(=O)O)cc1C | inactive: -1.79 | inactive: -1.66 | inactive: 0.285 |
| CCCc1nc(C)c2c(=O)[nH]c(-c3cc(S(=O)(=O)N4CCN(CC)CC4)ccc3OCC)nn12 [vardenafil hydrochloride] | inactive: -1.21 | inactive: -0.0997 | inactive: 3.34 |
| Nc1ccc(/C=C/C(=O)NCc2cc3cc(-c4ccc(C(=O)N5CCC(F)(F)CC5)cc4)cc(-c4ccc(F)cc4)c3o2)cn1 | inactive: -0.213 | inactive: -0.744 | inactive: 2.62 |
| Nc1ncnc2c1ncn2CCNCCCCCO | inactive: -0.652 | inactive: -0.231 | inactive: 0.0358 |
| COc1cc2cc(/C(N)=N\O)sc2cc1OC | inactive: -0.318 | inactive: -1.57 | active: 9.7 |
| CC(C)(C)NC(=O)[C@@H]1C[C@@H]2CCCC[C@@H]2CN1C[C@@H](O)[C@H](Cc1ccccc1)NC(=O)[C@@H](NC(=O)COc1cccnc1)C(C)(C)S(C)(=O)=O | inactive: 0.969 | inactive: -0.882 | inactive: -1.54 |
| CC(C)c1ccc2oc3nc(N)c(C(=O)O)cc3c(=O)c2c1 | inactive: -1.27 | – | inactive: -1.61 |
| CC(C)c1ccc2oc3nc(N)c(C(=O)O)cc3c(=O)c2c1 [amlexanox, nasal] | – | inactive: -0.74 | – |
| CC(C)(C)NC(=O)c1ccc(Oc2cc(F)c(CC(=O)O)cc2Cl)c(NS(=O)(=O)c2ccc(C#N)cc2)c1 | inactive: -0.969 | inactive: -0.67 | inactive: -1.09 |
| O=C1Nc2ccccc2CN(CC2CCCCC2)C12CCNCC2 | inactive: -1.68 | – | inactive: -0.528 |
| CN(c1ccc(Cl)cc1)c1cc[n+](Cc2ccc(-c3ccc(C[n+]4ccc(N(C)c5ccc(Cl)cc5)c5ccccc54)cc3)cc2)c2ccccc12 | inactive: -0.702 | inactive: -1.14 | inactive: -1.07 |
| CCCCCCCCCCCCCCOc1ccc(C(=O)O)o1 | inactive: -2.04 | inactive: -0.605 | inactive: 0.259 |
| CC1N(CC(=O)c2ccccc2)CCCC1(C)c1ccc(O)cc1 (centres undefined) | inactive: -0.227 | inactive: 0.259 | inactive: -1.01 |
| N=C(N)NCCC[C@@H](NC(=O)C1CCCN1C(=O)[C@@H]1CSSCCC(=O)N[C@@H](Cc2ccc(O)cc2)C(=O)N[C@@H](Cc2ccccc2)C(=O)N[C@@H](CCC(N)=O)C(=O)N[C@@H](CC(N)=O)C(=O)N1)C(=O)NCC(N)=O (some centres undefined) [desmopressin] | inactive: -1.74 | inactive: 0.285 | inactive: 1.19 |
| CCOC(=O)C1=C(C)NC(C)=C(C(=O)OCC)C1c1ccccc1/C=C/C(=O)OC(C)(C)C [lacidipine] | inactive: -1.01 | inactive: -1.82 | inactive: -2.49 |
| O=C(OC12CC3CC(CC(C3)C1)C2)c1ccc(NCc2cc(O)ccc2O)cc1 | inactive: -0.826 | inactive: -0.487 | active: 5.46 |
| O=C1c2ccccc2S(=O)(=O)N1CCCCN1CCN(c2cc(Cl)cc3c2OCCO3)CC1 | inactive: 1.15 | inactive: -0.609 | inactive: 0.319 |

Quoted at random: 2 records from the list, in no set order.

| SMILES | TEAD-luciferase reporter activity (compound concentration: 200 nM) | TEAD-luciferase reporter activity (compound concentration: 2 uM) | TEAD-luciferase reporter activity (compound concentration: 10 uM) |
| --- | --- | --- | --- |
| NC(=O)c1ncn([C@@H]2O[C@H](CO)[C@@H](O)[C@H]2O)c1O [Mizoribine] | inactive: 0.0634 | inactive: -0.553 | inactive: -0.325 |
| Cc1cccc(CN2CCN(C(c3ccccc3)c3ccc(Cl)cc3)CC2)c1 (centres undefined) [Meclozine hydrochloride] | – | inactive: 0.569 | – |
